Assay results: US20120208781A1, “AMINOGLYCOSIDE DOSING REGIMENS” (Achaogen, Inc., priority 2009, published 2012)
For at least one compound, name, drawing or mass did not settle the structure.

Tests used:
S. Aureus = assay: MIC, further isolates: S. aureus; format: cell-based
Enterobacteriaceae (EN) = assay: MIC, broth microdilution, Brooklyn hospital isolates: Enterobacteriaceae subsets (amikacin-resistant, KPC+); format: cell-based; details: including MDR-KPC+ strains
Method: In another study, the activity of Compound 1 against a collection of contemporary Gram-negative bacteria was determined. Unique patient isolates of P. aeruginosa (PA), A. baumannii (AB), K. pneumoniae (KP), E. coli (EC), and Enterobacter spp. (EB) from prior surveys at 16 Brooklyn, N.Y. hospitals were selected based on resistance patterns. The majority of isolates were fingerprinted by automated ribotyping. MICs were performed by broth microdilution. PCR was used to identify aminoglycoside-modifying enzymes (AMEs) in AB and KP and the KPC gene in Enterobacteriaceae (EN). The expression of the efflux genes mexA, C, E and X in PA, and adeB in AB was assessed by real-time RT-PCR.

CN[C@@H]1[C@@H](O)[C@@H](O[C@@H]2[C@@H](O)[C@H](O[C@H]3OC(CNCCO)=CC[C@H]3N)[C@@H](N)C[C@H]2NC(=O)[C@@H](O)CCN)OC[C@]1(C)O [Compound 1, 6′-(2-Hydroxy-ethyl)-1-(4-amino-2(S)-hydroxy-butyryl)-sisomicin]
activity (S. Aureus): strong activity
efficacy (Enterobacteriaceae (EN)): showed efficacy
